Experimental data taken from article PMC8208971, “Copper-binding anticancer peptides from the piscidin family: an expanded mechanism that encompasses physical and chemical bilayer disruption” (Scientific Reports, 2021).
Residues, ends and D or L forms follow the SMILES beside them.

Experiment: Neutron reflectometry: peptide distribution in tethered lipid bilayer
Conditions: NR, 3 µmol/L peptide; for Peptide fraction in headgroups total / Peptide fraction in hydrocarbons total / Center-of-mass (COM) position of peptide with respect to the bilayer center / Membrane-associated peptide (volume surface density): POPC tBLM; for Center-of-mass (COM) position of peptide with respect to the bilayer center: 20 mmol/L Tris pH 7.5, 30 min incubation; for Membrane-associated peptide (volume surface density): ± one standard deviation; for Peptide fraction in outer leaflet: leaflet exposed to bulk fluid; for Peptide fraction in inner leaflet: leaflet proximal to gold substrate

CC[C@H](C)[C@H](NC(=O)CNC(=O)[C@H](CCCNC(=N)N)NC(=O)[C@H](Cc1ccccc1)NC(=O)[C@@H](NC(=O)[C@H](Cc1c[nH]cn1)NC(=O)[C@H](Cc1c[nH]cn1)NC(=O)[C@H](Cc1ccccc1)NC(=O)[C@@H](N)Cc1ccccc1)[C@@H](C)CC)C(=O)N[C@H](C(=O)N[C@@H](Cc1c[nH]cn1)C(=O)N[C@H](C(=O)NCC(=O)N[C@@H](CCCCN)C(=O)N[C@H](C(=O)N[C@H](C(=O)N[C@@H](Cc1c[nH]cn1)C(=O)N[C@@H](CCCNC(=N)N)C(=O)N[C@@H](CC(C)C)C(=O)N[C@H](C(=O)N[C@H](C(=O)NCC(N)=O)[C@@H](C)O)C(C)C)[C@@H](C)CC)[C@@H](C)O)C(C)C)C(C)C [P1, piscidin 1] (H-FFHHIFRGIVHVGKTIHRLVTG-NH2)
Peptide fraction in headgroups total: 33 ± 9% | Peptide fraction in hydrocarbons total: 50 ± 10% | Center-of-mass (COM) position of peptide with respect to the bilayer center: 2 ± 2 Å | Membrane-associated peptide (volume surface density): 10 ± 3 Å3/Å2 | Peptide fraction in outer leaflet: 43 ± 6% | Peptide fraction in inner leaflet: 40 ± 7%

CC[C@H](C)[C@H](NC(=O)CNC(=O)[C@H](CCCNC(=N)N)NC(=O)[C@H](Cc1ccccc1)NC(=O)[C@@H](NC(=O)[C@H](Cc1c[nH]cn1)NC(=O)[C@H](Cc1c[nH]cn1)NC(=O)[C@H](Cc1ccccc1)NC(=O)[C@@H](N)Cc1ccccc1)[C@@H](C)CC)C(=O)N[C@H](C(=O)N[C@@H](Cc1c[nH]cn1)C(=O)N[C@H](C(=O)NCC(=O)N[C@@H](CCCCN)C(=O)N[C@H](C(=O)N[C@H](C(=O)N[C@@H](Cc1c[nH]cn1)C(=O)N[C@@H](CCCNC(=N)N)C(=O)N[C@@H](CC(C)C)C(=O)N[C@H](C(=O)N[C@H](C(=O)NCC(N)=O)[C@@H](C)O)C(C)C)[C@@H](C)CC)[C@@H](C)O)C(C)C)C(C)C [P1-Cu^2+] (H-FFHHIFRGIVHVGKTIHRLVTG-NH2; N-terminus assumed)
Peptide fraction in headgroups total: 34 ± 2% | Peptide fraction in hydrocarbons total: 46 ± 3% | Center-of-mass (COM) position of peptide with respect to the bilayer center: 1 ± 1 Å | Membrane-associated peptide (volume surface density): 12 ± 2 Å3/Å2 | Peptide fraction in outer leaflet: 32 ± 4% | Peptide fraction in inner leaflet: 49 ± 6%

CC[C@H](C)[C@H](NC(=O)CNC(=O)[C@H](CCCNC(=N)N)NC(=O)[C@H](Cc1ccccc1)NC(=O)[C@@H](NC(=O)[C@H](Cc1c[nH]cn1)NC(=O)[C@H](Cc1c[nH]cn1)NC(=O)[C@@H](NC(=O)[C@@H](N)Cc1ccccc1)[C@@H](C)CC)[C@@H](C)CC)C(=O)N[C@H](C(=O)N[C@@H](Cc1c[nH]cn1)C(=O)N[C@@H](C)C(=O)NCC(=O)N[C@@H](CCCNC(=N)N)C(=O)N[C@@H](CO)C(=O)N[C@H](C(=O)NCC(=O)N[C@@H](CCCNC(=N)N)C(=O)N[C@@H](Cc1ccccc1)C(=O)N[C@@H](CC(C)C)C(=O)N[C@H](C(=O)NCC(N)=O)[C@@H](C)O)[C@@H](C)CC)C(C)C [P3, piscidin 3] (H-FIHHIFRGIVHAGRSIGRFLTG-NH2)
Peptide fraction in headgroups total: 45 ± 6% | Peptide fraction in hydrocarbons total: 31 ± 8% | Center-of-mass (COM) position of peptide with respect to the bilayer center: 5 ± 2 Å | Membrane-associated peptide (volume surface density): 8 ± 2 Å3/Å2 | Peptide fraction in outer leaflet: 44 ± 6% | Peptide fraction in inner leaflet: 32 ± 6%

CC[C@H](C)[C@H](NC(=O)CNC(=O)[C@H](CCCNC(=N)N)NC(=O)[C@H](Cc1ccccc1)NC(=O)[C@@H](NC(=O)[C@H](Cc1c[nH]cn1)NC(=O)[C@H](Cc1c[nH]cn1)NC(=O)[C@@H](NC(=O)[C@@H](N)Cc1ccccc1)[C@@H](C)CC)[C@@H](C)CC)C(=O)N[C@H](C(=O)N[C@@H](Cc1c[nH]cn1)C(=O)N[C@@H](C)C(=O)NCC(=O)N[C@@H](CCCNC(=N)N)C(=O)N[C@@H](CO)C(=O)N[C@H](C(=O)NCC(=O)N[C@@H](CCCNC(=N)N)C(=O)N[C@@H](Cc1ccccc1)C(=O)N[C@@H](CC(C)C)C(=O)N[C@H](C(=O)NCC(N)=O)[C@@H](C)O)[C@@H](C)CC)C(C)C [P3-Cu^2+] (H-FIHHIFRGIVHAGRSIGRFLTG-NH2; N-terminus assumed)
Peptide fraction in headgroups total: 37 ± 3% | Peptide fraction in hydrocarbons total: 37 ± 5% | Center-of-mass (COM) position of peptide with respect to the bilayer center: 3 ± 1 Å | Membrane-associated peptide (volume surface density): 11 ± 2 Å3/Å2 | Peptide fraction in outer leaflet: 43 ± 3% | Peptide fraction in inner leaflet: 32 ± 5%
